Reference: patent US20160244802A1, “Protein Demethylases Comprising a JMJC Domain” (The University of North Carolina at Chapel Hill, priority 2005, published 2016)
Results are given in words; binding and its absence hold for the method and conditions named. Binding seen in cells or lysates may run through a third protein. Some results given as binding are weak or reduced against the parent protein; the word gives no strength. Tags and fused reporters may be left off the sequences shown.

Sequences of proteins named here, by UniProt entry; tags and fusion partners are left off.
UniProt P10275: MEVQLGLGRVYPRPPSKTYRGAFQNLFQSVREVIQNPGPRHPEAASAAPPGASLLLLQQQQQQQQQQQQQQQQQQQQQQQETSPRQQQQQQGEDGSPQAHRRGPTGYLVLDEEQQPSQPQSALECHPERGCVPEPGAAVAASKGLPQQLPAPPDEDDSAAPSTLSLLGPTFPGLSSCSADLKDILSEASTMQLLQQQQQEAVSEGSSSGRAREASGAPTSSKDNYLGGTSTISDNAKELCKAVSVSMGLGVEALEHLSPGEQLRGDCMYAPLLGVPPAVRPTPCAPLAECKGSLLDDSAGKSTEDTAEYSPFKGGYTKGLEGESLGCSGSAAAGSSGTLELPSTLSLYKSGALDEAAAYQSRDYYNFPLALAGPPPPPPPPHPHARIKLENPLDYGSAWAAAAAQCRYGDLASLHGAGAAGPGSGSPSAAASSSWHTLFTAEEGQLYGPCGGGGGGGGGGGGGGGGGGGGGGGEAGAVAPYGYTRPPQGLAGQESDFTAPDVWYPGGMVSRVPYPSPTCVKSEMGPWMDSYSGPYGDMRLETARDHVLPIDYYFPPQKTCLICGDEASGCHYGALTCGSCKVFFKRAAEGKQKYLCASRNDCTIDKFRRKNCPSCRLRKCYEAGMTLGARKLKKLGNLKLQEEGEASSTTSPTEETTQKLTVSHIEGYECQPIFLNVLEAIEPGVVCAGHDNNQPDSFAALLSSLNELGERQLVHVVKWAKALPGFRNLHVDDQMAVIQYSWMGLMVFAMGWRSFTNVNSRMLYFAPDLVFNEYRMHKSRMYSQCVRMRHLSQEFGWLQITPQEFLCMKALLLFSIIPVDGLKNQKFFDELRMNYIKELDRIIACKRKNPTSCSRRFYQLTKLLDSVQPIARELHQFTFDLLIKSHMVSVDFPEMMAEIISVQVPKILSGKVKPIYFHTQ

Biological target: androgen receptor (AR), in vitro translated, 35S-methionine labeled (UniProt P10275)
Test: co-immunoprecipitation with anti-JHDM2A antibody of 35S-labeled in vitro translated AR mixed with recombinant JHDM2A, with or without 100 nM R1881; autoradiography

B1: recombinant Flag-JHDM2A (JmjC domain-containing histone demethylase 2A) (enzyme, not shown: small tags and cut ends)
chain: MVLTLGESWPVLVGRRFLSLSAADGSDGSHDSWDVERVAEWPWLSGTIRAVSHTDVTKKDLKVCVEFDGESWRKRRWIEVYSLLRRAFLVEHNLVLAERKSPEISERIVQWPAITYKPLLDKAGLGSITSVRFLGDQQRVFLSKDLLKPIQDVNSLRLSLTDNQIVSKEFQALIVKHLDESHLLKGDKNLVGSEVKIYSLDPSTQWFSATVINGNPASKTLQVNCEEIPALKIVDPSLIHVEVVHDNLVTCGNSARIGAVKRKSSENNGTLVSKQAKSCSEASPSMCPVQSVPTTVFKEILLGCTAATPPSKDPRQQSTPQAANSPPNLGAKIPQGCHKQSLPEEISSCLNTKSEALRTKPDVCKAGLLSKSSQIGTGDLKILTEPKGSCTQPKTNTDQENRLESVPQALTGLPKECLPTKASSKAELEIANPPELQKHLEHAPSPSDVSNAPEVKAGVNSDSPNNCSGKKVEPSALACRSQNLKESSVKVDNESCCSRSNNKIQNAPSRKSVLTDPAKLKKLQQSGEAFVQDDSCVNIVAQLPKCRECRLDSLRKDKEQQKDSPVFCRFFHFRRLQFNKHGVLRVEGFLTPNKYDNEAIGLWLPLTKNVVGIDLDTAKYILANIGDHFCQMVISEKEAMSTIEPHRQVAWKRAVKGVREMCDVCDTTIFNLHWVCPRCGFGVCVDCYRMKRKNCQQGAAYKTFSWLKCVKSQIHEPENLMPTQIIPGKALYDVGDIVHSVRAKWGIKANCPCSNRQFKLFSKPASKEDLKQTSLAGEKPTLGAVLQQNPSVLEPAAVGGEAASKPAGSMKPACPASTSPLNWLADLTSGNVNKENKEKQPTMPILKNEIKCLPPLPPLSKSSTVLHTFNSTILTPVSNNNSGFLRNLLNSSTGKTENGLKNTPKILDDIFASLVQNKTTSDLSKRPQGLTIKPSILGFDTPHYWLCDNRLLCLQDPNNKSNWNVFRECWKQGQPVMVSGVHHKLNSELWKPESFRKEFGEQEVDLVNCRTNEIITGATVGDFWDGFEDVPNRLKNEKEPMVLKLKDWPPGEDFRDMMPSRFDDLMANIPLPEYTRRDGKLNLASRLPNYFVRPDLGPKMYNAYGLITPEDRKYGTTNLHLDVSDAANVMVYVGIPKGQCEQEEEVLKTIQDGDSDELTIKRFIEGKEKPGALWHIYAAKDTEKIREFLKKVSEEQGQENPADHDPIHDQSWYLDRSLRKRLHQEYGVQGWAIVQFLGDVVFIPAGAPHQVHNLYSCIKVAEDFVSPEHVKHCFWLTQEFRYLSQTHTNHEDKLQVKNVIYHAVKDAVAMLKASESSFGKP
- binding: binds
